Results as given in the supplement of paper PMC10849652.
This is one part of the list.

By UniProt entry, the sequences of proteins in these tests, tags left out. Where a name states a change or a piece, a line headed by the entry shows the natural chain unless it says otherwise.
UniProt Q11206: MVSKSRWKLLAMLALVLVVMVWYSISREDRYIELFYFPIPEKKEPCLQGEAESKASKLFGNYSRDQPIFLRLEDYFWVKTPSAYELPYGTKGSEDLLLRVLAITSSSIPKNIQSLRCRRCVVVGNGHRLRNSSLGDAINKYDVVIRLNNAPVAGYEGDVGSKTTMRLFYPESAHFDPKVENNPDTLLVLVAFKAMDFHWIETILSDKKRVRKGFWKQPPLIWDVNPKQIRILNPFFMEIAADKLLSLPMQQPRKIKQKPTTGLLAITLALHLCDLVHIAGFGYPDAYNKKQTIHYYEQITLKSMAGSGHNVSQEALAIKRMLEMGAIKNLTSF
UniProt Q9ULZ2: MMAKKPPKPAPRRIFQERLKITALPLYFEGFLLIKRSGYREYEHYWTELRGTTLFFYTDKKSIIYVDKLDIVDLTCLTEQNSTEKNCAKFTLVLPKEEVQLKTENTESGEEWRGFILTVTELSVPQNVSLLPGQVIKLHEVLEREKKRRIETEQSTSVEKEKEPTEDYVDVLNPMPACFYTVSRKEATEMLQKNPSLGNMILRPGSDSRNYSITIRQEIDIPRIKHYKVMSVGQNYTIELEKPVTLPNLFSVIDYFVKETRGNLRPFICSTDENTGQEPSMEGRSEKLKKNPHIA
UniProt O95793: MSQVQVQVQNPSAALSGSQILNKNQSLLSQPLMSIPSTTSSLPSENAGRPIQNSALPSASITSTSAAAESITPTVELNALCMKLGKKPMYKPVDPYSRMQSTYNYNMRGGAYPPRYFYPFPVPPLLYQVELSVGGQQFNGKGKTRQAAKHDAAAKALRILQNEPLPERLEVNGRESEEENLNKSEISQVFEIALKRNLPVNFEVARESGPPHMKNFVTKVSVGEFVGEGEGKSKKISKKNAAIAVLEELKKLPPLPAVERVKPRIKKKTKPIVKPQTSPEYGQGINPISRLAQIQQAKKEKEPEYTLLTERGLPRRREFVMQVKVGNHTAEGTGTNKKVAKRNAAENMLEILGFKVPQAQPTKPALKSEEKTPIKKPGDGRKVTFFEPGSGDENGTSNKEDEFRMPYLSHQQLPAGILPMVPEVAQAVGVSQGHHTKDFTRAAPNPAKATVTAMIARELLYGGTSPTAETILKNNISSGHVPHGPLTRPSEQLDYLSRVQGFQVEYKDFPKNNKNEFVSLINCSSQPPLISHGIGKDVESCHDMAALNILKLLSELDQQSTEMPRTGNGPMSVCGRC
UniProt Q5T280: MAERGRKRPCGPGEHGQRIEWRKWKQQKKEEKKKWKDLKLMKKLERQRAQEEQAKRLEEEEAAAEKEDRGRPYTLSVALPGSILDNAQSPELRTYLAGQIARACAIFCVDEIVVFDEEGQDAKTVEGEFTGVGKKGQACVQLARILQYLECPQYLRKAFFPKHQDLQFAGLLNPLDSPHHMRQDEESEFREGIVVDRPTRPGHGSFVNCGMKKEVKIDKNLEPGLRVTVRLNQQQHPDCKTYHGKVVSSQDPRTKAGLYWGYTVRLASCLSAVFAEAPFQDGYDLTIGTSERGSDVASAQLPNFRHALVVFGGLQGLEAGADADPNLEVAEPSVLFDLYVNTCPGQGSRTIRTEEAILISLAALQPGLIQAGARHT
UniProt O75177, whole entry, looked up: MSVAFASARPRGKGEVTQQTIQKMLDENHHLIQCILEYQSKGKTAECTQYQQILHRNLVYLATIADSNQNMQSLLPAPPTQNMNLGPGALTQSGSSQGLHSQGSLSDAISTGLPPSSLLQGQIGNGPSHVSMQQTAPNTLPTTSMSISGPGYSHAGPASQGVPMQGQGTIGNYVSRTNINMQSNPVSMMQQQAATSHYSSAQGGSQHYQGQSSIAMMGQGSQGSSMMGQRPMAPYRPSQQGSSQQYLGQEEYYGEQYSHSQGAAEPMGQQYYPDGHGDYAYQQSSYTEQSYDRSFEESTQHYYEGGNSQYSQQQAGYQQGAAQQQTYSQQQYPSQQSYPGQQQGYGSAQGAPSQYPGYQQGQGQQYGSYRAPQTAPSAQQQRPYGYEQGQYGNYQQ
UniProt Q68D10: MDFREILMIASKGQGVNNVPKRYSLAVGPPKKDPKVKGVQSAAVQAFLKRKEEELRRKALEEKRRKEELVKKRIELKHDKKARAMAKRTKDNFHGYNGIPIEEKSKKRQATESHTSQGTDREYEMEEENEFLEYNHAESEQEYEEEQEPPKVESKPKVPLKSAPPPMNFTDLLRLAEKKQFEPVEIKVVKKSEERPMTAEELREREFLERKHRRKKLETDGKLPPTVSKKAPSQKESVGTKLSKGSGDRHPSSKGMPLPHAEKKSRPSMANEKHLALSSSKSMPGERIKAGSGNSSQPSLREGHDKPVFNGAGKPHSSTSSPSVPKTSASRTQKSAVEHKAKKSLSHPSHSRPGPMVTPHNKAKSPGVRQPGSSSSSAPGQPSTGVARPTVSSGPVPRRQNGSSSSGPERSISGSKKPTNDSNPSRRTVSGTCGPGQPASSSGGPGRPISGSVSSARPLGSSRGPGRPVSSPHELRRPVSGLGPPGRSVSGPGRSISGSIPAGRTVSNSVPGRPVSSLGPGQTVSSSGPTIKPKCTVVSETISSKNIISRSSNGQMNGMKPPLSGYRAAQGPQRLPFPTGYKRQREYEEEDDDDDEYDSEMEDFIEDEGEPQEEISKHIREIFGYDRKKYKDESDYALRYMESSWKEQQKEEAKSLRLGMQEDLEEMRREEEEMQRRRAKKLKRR
UniProt P49675, whole entry, looked up: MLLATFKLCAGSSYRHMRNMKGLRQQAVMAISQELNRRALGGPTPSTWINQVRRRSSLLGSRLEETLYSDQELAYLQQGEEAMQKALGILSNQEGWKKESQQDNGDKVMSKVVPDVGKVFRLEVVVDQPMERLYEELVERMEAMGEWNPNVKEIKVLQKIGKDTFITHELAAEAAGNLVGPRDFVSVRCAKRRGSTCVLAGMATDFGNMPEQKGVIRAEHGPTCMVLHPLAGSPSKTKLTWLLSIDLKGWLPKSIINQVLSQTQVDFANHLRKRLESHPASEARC
UniProt Q9NSC7: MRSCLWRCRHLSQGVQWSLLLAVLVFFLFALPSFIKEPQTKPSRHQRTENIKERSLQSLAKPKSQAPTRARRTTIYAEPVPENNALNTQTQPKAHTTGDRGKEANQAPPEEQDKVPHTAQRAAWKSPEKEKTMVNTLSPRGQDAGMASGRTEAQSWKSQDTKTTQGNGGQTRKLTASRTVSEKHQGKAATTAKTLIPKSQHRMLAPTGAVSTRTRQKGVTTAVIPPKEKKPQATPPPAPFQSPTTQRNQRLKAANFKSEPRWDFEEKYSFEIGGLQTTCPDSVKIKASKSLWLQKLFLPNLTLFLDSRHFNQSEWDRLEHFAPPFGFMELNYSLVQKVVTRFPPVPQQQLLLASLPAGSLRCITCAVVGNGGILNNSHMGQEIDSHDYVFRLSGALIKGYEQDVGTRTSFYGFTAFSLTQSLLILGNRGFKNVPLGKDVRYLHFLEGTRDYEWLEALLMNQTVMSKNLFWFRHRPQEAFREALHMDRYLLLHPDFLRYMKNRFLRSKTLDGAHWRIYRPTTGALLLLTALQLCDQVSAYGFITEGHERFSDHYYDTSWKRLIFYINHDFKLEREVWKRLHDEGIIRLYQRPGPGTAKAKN
UniProt Q92502: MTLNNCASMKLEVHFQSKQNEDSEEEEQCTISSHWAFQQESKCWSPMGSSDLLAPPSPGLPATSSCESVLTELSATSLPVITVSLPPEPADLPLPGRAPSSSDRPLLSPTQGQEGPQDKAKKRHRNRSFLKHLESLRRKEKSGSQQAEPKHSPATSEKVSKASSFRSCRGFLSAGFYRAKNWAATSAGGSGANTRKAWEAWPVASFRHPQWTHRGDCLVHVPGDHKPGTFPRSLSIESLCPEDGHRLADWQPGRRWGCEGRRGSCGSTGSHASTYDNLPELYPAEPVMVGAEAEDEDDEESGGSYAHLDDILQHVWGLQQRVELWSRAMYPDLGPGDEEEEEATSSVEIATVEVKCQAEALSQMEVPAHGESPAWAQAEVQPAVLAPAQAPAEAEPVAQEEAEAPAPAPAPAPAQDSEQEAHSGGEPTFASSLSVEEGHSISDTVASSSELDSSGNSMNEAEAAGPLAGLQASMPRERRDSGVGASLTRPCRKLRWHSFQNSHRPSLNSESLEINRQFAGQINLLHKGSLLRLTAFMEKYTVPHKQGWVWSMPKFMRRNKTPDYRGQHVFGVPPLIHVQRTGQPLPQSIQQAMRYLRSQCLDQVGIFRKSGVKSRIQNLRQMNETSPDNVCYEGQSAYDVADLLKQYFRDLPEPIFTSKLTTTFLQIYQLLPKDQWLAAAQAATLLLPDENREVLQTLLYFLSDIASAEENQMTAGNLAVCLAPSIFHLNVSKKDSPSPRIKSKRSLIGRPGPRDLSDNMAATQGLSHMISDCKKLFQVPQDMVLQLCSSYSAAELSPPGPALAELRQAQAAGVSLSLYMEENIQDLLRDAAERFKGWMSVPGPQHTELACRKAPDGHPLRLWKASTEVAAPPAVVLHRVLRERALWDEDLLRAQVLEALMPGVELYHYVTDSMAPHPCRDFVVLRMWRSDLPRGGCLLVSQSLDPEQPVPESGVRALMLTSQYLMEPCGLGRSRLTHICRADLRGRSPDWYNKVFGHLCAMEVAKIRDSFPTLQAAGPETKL
UniProt Q9Y6N5: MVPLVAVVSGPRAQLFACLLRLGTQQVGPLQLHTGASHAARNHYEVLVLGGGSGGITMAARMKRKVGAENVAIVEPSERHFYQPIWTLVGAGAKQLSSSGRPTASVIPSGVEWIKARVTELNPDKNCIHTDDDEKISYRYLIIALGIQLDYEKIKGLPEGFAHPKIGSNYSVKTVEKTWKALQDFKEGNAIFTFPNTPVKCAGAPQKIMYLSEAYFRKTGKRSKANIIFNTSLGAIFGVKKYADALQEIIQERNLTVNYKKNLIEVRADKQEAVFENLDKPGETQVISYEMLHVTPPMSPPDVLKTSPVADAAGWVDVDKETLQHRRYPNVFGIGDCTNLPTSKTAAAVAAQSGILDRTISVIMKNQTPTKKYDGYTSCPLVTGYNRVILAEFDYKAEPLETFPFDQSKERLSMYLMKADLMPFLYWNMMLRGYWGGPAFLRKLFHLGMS
UniProt Q16384, whole entry, looked up: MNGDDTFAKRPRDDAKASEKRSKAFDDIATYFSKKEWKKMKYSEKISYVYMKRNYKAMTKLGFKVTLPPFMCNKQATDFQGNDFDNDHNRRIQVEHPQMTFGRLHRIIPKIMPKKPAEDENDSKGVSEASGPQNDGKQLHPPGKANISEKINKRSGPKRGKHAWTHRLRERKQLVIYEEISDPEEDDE
UniProt P36956: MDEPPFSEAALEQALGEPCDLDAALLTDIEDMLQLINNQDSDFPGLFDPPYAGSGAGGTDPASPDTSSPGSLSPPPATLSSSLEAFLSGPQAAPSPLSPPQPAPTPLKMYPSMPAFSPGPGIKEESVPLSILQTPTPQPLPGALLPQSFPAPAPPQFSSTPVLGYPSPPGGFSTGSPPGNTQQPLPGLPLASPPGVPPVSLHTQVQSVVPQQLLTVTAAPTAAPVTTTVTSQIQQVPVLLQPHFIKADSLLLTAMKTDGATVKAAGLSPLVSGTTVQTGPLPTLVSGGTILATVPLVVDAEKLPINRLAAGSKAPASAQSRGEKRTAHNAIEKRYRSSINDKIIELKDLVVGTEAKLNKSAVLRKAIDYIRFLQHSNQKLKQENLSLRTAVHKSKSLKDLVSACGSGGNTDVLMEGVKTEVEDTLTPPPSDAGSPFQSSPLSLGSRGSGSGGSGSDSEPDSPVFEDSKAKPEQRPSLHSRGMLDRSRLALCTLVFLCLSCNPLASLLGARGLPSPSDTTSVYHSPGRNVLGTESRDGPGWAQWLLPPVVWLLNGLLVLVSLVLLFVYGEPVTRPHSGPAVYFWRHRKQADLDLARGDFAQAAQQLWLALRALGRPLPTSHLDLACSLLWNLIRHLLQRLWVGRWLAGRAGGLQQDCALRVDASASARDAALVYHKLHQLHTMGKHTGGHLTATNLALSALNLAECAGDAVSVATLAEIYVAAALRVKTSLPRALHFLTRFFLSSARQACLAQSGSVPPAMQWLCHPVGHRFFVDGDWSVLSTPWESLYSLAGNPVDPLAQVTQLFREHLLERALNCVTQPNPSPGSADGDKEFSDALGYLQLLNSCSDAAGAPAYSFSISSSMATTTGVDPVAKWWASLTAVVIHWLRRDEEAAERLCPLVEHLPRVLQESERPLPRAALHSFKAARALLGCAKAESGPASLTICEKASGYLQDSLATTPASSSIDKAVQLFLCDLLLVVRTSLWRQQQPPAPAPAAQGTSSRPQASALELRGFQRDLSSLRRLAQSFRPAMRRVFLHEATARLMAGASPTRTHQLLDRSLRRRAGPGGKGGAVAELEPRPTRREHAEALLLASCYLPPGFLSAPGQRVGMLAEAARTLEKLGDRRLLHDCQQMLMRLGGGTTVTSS

compound: Cc1nc(Nc2n[nH]c3c2CN(C(=O)N[C@H](CN(C)C)c2ccccc2)C3(C)C)c2sccc2n1; experiment: log2 fold change, soluble protein after heating vs DMSO (PISA); higher = thermal stabilisation; K562 lysate, 10 uM; active = over 0.2 and 3.5 SD of the protein, either way, in both replicates (recomputed)
How it was run: (§1)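 A 30 min treatment with 10 μM compound was applied to crude K562 extract at 1 mg/mL protein in PBS pH 7.4 with 1 mM MgCl2. Heating for 3 min spanned 48°C-58°C, after which aliquots were pooled, adjusted to 0.5% NP-40 at 4°C and spun at 21,000xg for 90 min. TMTpro 16plex LC-MS/MS of the supernatant, with channel sums equalised, gave values recorded as log-two fold change in thermal stability against solvent controls, from duplicates.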

log2 fold change, inactive:
SPTBN1 isoform 3 (UniProt Q01082) -0.086
ST3GAL4 isoform 4 (UniProt Q11206) -0.137
SPICE1 (UniProt Q8N0Z3) -0.321
SPRED2 (UniProt Q7Z698) -0.027
SRCIN1 (UniProt Q9C0H9) 0.096
STAP1 (UniProt Q9ULZ2) -0.259
STAT1 isoform 2 (UniProt P42224) 0.075
STAU1 isoform 3 (UniProt O95793) -0.024
SPOUT1 (UniProt Q5T280) 0.122
SS18L1 (UniProt O75177) -0.078
SSBP4 (UniProt U3KPY3) 0.026
SPTY2D1 (UniProt Q68D10) -0.094
SSX2IP (UniProt Q9Y2D8) 0.073
STAR (UniProt P49675) -0.092
ST6GALNAC1 (UniProt Q9NSC7) -0.03

compound: Cc1nc(Nc2ncc(C(=O)Nc3c(C)cccc3Cl)s2)cc(N2CCN(CCO)CC2)n1 [dasatinib]; experiment: as above
How it was run: as §1

log2 fold change, inactive:
SPTBN1 isoform 3 (UniProt Q01082) 0.009
STARD8 isoform 2 (UniProt Q92502) 0.066
ST3GAL4 isoform 4 (UniProt Q11206) -0.045
SQOR (UniProt Q9Y6N5) 0.237
SSBP2 (UniProt P81877) 0.184
STAP1 (UniProt Q9ULZ2) -0.054
SPRTN (UniProt Q9H040) 0.062
SPOUT1 (UniProt Q5T280) -0.028
SPTY2D1 (UniProt Q68D10) -0.12
STAM (UniProt A6NMU3) 0.012
SSX1 (UniProt Q16384) 0.05
SRRD (UniProt Q9UH36) -0.156
STAR (UniProt P49675) 0.046
SREBF1 isoform 4 (UniProt P36956) -0.004
ST6GALNAC1 (UniProt Q9NSC7) 0.026
ST3GAL1 (UniProt Q11201) -0.183

compound: Cc1ncc(-c2ccnc(Nc3ccc(S(C)(=O)=O)cc3)n2)n1C(C)C; experiment: as above
How it was run: as §1

log2 fold change, inactive:
SPTBN1 isoform 3 (UniProt Q01082) 0.156
ST3GAL4 isoform 4 (UniProt Q11206) 0.157
SPICE1 (UniProt Q8N0Z3) -0.392
SPRED2 (UniProt Q7Z698) 0
SRCIN1 (UniProt Q9C0H9) 0.177
STAP1 (UniProt Q9ULZ2) 0.231
STAT1 isoform 2 (UniProt P42224) 0.095
STAU1 isoform 3 (UniProt O95793) -0.023
SPOUT1 (UniProt Q5T280) -0.046
SS18L1 (UniProt O75177) 0.03
SSBP4 (UniProt U3KPY3) 0.099
SPTY2D1 (UniProt Q68D10) -0.19
SSX2IP (UniProt Q9Y2D8) 0.006
STAR (UniProt P49675) -0.019
ST6GALNAC1 (UniProt Q9NSC7) -0.097

compound: Cn1cc(-c2ccc3c(c2)CCN3C(=O)Cc2cccc(C(F)(F)F)c2)c2c(N)ncnc21; experiment: as above
How it was run: as §1

log2 fold change, inactive:
SPTBN1 isoform 3 (UniProt Q01082) 0.036
STARD8 isoform 2 (UniProt Q92502) 0.009
ST3GAL4 isoform 4 (UniProt Q11206) 0.043
SQOR (UniProt Q9Y6N5) -0.081
SSBP2 (UniProt P81877) -0.122
STAP1 (UniProt Q9ULZ2) 0.021
SPRTN (UniProt Q9H040) 0.101
SPOUT1 (UniProt Q5T280) -0.045
SPTY2D1 (UniProt Q68D10) 0.153
STAM (UniProt A6NMU3) 0
SSX1 (UniProt Q16384) 0.129
SRRD (UniProt Q9UH36) 0.062
STAR (UniProt P49675) 0.011
SREBF1 isoform 4 (UniProt P36956) 0.073
ST6GALNAC1 (UniProt Q9NSC7) -0.046
ST3GAL1 (UniProt Q11201) 0.021

compound: Cn1cc(CNCC2CCN(c3ncc(C(=O)NO)cn3)CC2)c2ccccc21 [quisinostat]; experiment: as above
How it was run: as §1

log2 fold change, inactive:
SPTBN1 isoform 3 (UniProt Q01082) -0.02
STARD8 isoform 2 (UniProt Q92502) 0.234
ST3GAL4 isoform 4 (UniProt Q11206) 0.091
SQOR (UniProt Q9Y6N5) 0.095
SSBP2 (UniProt P81877) 0.021
STAT1 isoform 2 (UniProt P42224) 0.07
STAU1 isoform 3 (UniProt O95793) -0.11
SS18L1 (UniProt O75177) -0.073
SPTY2D1 (UniProt Q68D10) -0.122
SRGAP2, A0A075B7B5 0.072
STAM (UniProt A6NMU3) 0.034
SSX1 (UniProt Q16384) -0.162
SPTAN1 isoform 3 (UniProt Q13813) -0.135
SPRYD3 (UniProt Q8NCJ5) -0.11
STAB1 (UniProt Q9NY15) -0.522
SRRD (UniProt Q9UH36) 0.073
STAR (UniProt P49675) -0.041
SREBF1 isoform 4 (UniProt P36956) -0.049
ST6GALNAC1 (UniProt Q9NSC7) 0.015
ST3GAL1 (UniProt Q11201) 0.283
SPC24 (UniProt K7ESQ2) 0.021
